Laboratory results: PubChem BioAssay AID743121 (NCATS, 2013)
The whole screen tested about 26,000 reagents; this is a random part of them. In the full data, 167 (0.63%) are marked active. 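Calls are per gene from RSA p-values that are not deposited; an individual active-marked siRNA can sensitise only weakly.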 Entries without a mark were called inactive. The numbers tell different reagents against one gene apart. Not all columns of the deposit are shown.

Test: 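Partners whose loss is lethal together with topoisomerase I blockade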 (primary screen)
Cell system: MDA-MB-231 cells, a human breast cancer line
Reagent: single siRNA against human genes, 20 nM siRNA (0.8 pmol per well)
Duration: 120 h (drug added 48 h after transfection, read 72 h later)
Conditions: camptothecin 20 nM (about EC30) for 72 h; vehicle 0.1% DMSO in parallel plates
Read-out: 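Cell viability by ATP luminescence (CellTiter-Glo) as % of non-targeting siRNA wells, and the log2 ratio of viability without drug over viability with camptothecin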
Reading the numbers: log2 vehicle/camptothecin viability: higher = stronger sensitisation to camptothecin; viability with camptothecin: higher = more viable cells
Call rule: 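Each gene scored by redundant siRNA activity (RSA) over its individual siRNA ratios; a gene is called active at p < 0.001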

no.	target gene	reagent	log2 vehicle/camptothecin viability	viability with camptothecin (% of control)
1	FKBP2 (FKBP prolyl isomerase 2)	1	-0.182	87.1
2	FKBP2 (FKBP prolyl isomerase 2)	2	0.503	54.8
3	FKBP2 (FKBP prolyl isomerase 2)	3	0.105	67.8
4	FKBP2 (FKBP prolyl isomerase 2)	4	0.018	82.6
5	HRAS (HRas proto-oncogene, GTPase)	1	-0.188	59.6
6	HRAS (HRas proto-oncogene, GTPase)	2	0.0431	88.8
7	HRAS (HRas proto-oncogene, GTPase)	3	0.0738	57.8
8	HRAS (HRas proto-oncogene, GTPase)	4	-0.318	34.2
9	SC5D (sterol-C5-desaturase)	1	-0.0697	106
10	SC5D (sterol-C5-desaturase)	2	-0.23	38.1
11	SC5D (sterol-C5-desaturase)	3	-0.656	89.3
12	SC5D (sterol-C5-desaturase)	4	0.125	90.6
13	PTPRZ1 (protein tyrosine phosphatase receptor type Z1)	1	-0.295	70.1
14	PTPRZ1 (protein tyrosine phosphatase receptor type Z1)	2	-0.454	82.1
15	PTPRZ1 (protein tyrosine phosphatase receptor type Z1)	3	0.195	79.2
16	PTPRZ1 (protein tyrosine phosphatase receptor type Z1)	4	-0.556	54.6
17	ZMYND11 (zinc finger MYND-type containing 11)	1	-0.159	74
18	ZMYND11 (zinc finger MYND-type containing 11)	2	-0.458	90.6
19	ZMYND11 (zinc finger MYND-type containing 11)	3	-0.38	80.2
20	ZMYND11 (zinc finger MYND-type containing 11)	4	-0.494	73.3
21	FBXO38 (F-box protein 38)	1	-0.143	115
22	FBXO38 (F-box protein 38)	2	-0.155	99.7
23	FBXO38 (F-box protein 38)	3	-0.069	91.3
24	FBXO38 (F-box protein 38)	4	-0.0869	94.5
25	IL13 (interleukin 13)	1	-0.0358	100
26	IL13 (interleukin 13)	2	-0.496	72.6
27	IL13 (interleukin 13)	3	-0.442	68.8
28	IL13 (interleukin 13)	4	0.0058	72.8
29	TPTE2	1	-0.376	61.9
30	TPTE2	2	-0.294	75.8
31	TPTE2	3	0.308	66.2
32	TPTE2	4	-0.553	87.8
33	PLIN2 (perilipin 2)	1	-0.329	84.6
34	PLIN2 (perilipin 2)	2	0.515	39.5
35	PLIN2 (perilipin 2)	3	0.339	51.5
36	PLIN2 (perilipin 2)	4	0.14	48.1
37	MAP2K7 (mitogen-activated protein kinase kinase 7)	1	-0.54	49.1
38	MAP2K7 (mitogen-activated protein kinase kinase 7)	2	-0.37	103
39	MAP2K7 (mitogen-activated protein kinase kinase 7)	3	-0.309	72.1
40	MAP2K7 (mitogen-activated protein kinase kinase 7)	4	-0.532	62.8
41	STAT2 (signal transducer and activator of transcription 2)	1	-0.057	76.8
42	STAT2 (signal transducer and activator of transcription 2)	2	0.092	86.7
43	STAT2 (signal transducer and activator of transcription 2)	3	-0.232	74.1
44	VAV2 (vav guanine nucleotide exchange factor 2)	1	-0.31	116
45	VAV2 (vav guanine nucleotide exchange factor 2)	2	-0.134	72.7
46	VAV2 (vav guanine nucleotide exchange factor 2)	3	-0.102	111
47	MED24 (mediator complex subunit 24)	1	-0.169	89.9
48	MED24 (mediator complex subunit 24)	2	-0.158	81.7
49	MED24 (mediator complex subunit 24)	3	-0.251	63.1
50	MED24 (mediator complex subunit 24)	4	-0.264	97.9
51	PROSER1 (proline and serine rich 1)	1	-0.283	81.2
52	PROSER1 (proline and serine rich 1)	2	-0.066	77.7
53	PROSER1 (proline and serine rich 1)	3	-0.173	95.1
54	PROSER1 (proline and serine rich 1)	4	-0.222	69.8
55	CLN3 (CLN3 lysosomal/endosomal transmembrane protein, battenin)	1	-0.0222	97.4
56	CLN3 (CLN3 lysosomal/endosomal transmembrane protein, battenin)	2	0.108	59.3
57	CLN3 (CLN3 lysosomal/endosomal transmembrane protein, battenin)	3	-0.464	42.1
58	CLN3 (CLN3 lysosomal/endosomal transmembrane protein, battenin)	4	-0.202	94.2
59	SGPP1 (sphingosine-1-phosphate phosphatase 1)	1	0.33	27
60	SGPP1 (sphingosine-1-phosphate phosphatase 1)	2	-0.0867	22.8
61	SGPP1 (sphingosine-1-phosphate phosphatase 1)	3	-0.192	11.8
62	SGPP1 (sphingosine-1-phosphate phosphatase 1)	4	0.389	86.2
63	RNF111 (ring finger protein 111)	1	-0.186	56.1
64	RNF111 (ring finger protein 111)	2	-0.389	80.9
65	RNF111 (ring finger protein 111)	3	-0.121	73.2
66	RNF111 (ring finger protein 111)	4	0.0199	89.1
67	FTH1 (ferritin heavy chain 1)	1	-0.35	89.1
68	FTH1 (ferritin heavy chain 1)	2	0.0359	137
69	FTH1 (ferritin heavy chain 1)	3	-0.156	93
70	FTH1 (ferritin heavy chain 1)	4	-0.118	82.1
